Results are given in words; binding and its absence hold for the method and conditions named. In cells and extracts the contact can be indirect. Some binding calls cover weakened binding; strength is not graded here.
Assays:
[1] = biological target: androgen receptor (human (endogenous in primary endometrial stromal cells)) (UniProt P10275); experiment: co-IP; PCOS stromal cells left untreated (no DHT); lysate precipitated with anti-AR antibody, blot probed with anti-MAGEA11; IgG as negative control
[2] = biological target: androgen receptor (human (endogenous in primary endometrial stromal cells)) (UniProt P10275); experiment: co-IP; PCOS stromal cells exposed to 0.1 uM DHT for 24 h, fixed with 4% paraformaldehyde, RIPA lysate; precipitated with anti-AR antibody and A/G PLUS-Agarose beads, blot probed with anti-MAGEA11; IgG as negative control

Sequences of proteins named here, by UniProt entry; tags and fusion partners are left off.
UniProt P10275: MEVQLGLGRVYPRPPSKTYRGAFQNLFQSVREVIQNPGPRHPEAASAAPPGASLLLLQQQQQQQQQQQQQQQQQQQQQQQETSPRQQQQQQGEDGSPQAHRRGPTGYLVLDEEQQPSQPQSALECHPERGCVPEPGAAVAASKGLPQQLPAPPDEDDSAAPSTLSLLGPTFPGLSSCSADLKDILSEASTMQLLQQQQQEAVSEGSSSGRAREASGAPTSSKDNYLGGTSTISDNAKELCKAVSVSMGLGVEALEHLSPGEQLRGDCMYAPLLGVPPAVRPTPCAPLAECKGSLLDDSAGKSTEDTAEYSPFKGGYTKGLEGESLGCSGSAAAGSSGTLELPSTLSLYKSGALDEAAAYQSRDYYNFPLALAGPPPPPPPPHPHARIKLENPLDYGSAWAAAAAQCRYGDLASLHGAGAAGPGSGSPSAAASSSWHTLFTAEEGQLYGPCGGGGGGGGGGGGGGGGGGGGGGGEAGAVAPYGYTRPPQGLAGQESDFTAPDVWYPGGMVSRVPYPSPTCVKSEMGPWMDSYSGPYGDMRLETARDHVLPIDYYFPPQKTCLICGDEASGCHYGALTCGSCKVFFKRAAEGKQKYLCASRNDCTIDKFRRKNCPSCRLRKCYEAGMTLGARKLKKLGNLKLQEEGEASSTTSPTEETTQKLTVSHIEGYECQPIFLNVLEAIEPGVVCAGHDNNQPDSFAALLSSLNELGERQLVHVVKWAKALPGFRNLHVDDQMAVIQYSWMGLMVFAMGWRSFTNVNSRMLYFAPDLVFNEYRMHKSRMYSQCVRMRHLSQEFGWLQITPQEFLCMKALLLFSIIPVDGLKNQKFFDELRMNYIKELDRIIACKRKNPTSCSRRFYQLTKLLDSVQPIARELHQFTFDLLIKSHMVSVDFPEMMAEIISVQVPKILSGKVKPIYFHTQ

- binding [2]: binds
B1: MAGEA11 (protein, UniProt P43364 1-429)
chain: METQFRRGGLGCSPASIKRKKKREDSGDFGLQVSTMFSEDDFQSTERAPYGPQLQWSQDLPRVQVFREQANLEDRSPRRTQRITGGEQVLWGPITQIFPTVRPADLTRVIMPLEQRSQHCKPEEGLQAQEEDLGLVGAQALQAEEQEAAFFSSTLNVGTLEELPAAESPSPPQSPQEESFSPTAMDAIFGSLSDEGSGSQEKEGPSTSPDLIDPESFSQDILHDKIIDLVHLLLRKYRVKGLITKAEMLGSVIKNYEDYFPEIFREASVCMQLLFGIDVKEVDPTSHSYVLVTSLNLSYDGIQCNEQSMPKSGLLIIVLGVIFMEGNCIPEEVMWEVLSIMGVYAGREHFLFGEPKRLLTQNWVQEKYLVYRQVPGTDPACYEFLWGPRAHAETSKMKVLEYIANANGRDPTSYPSLYEDALREEGEGV
- binding [1]: no binding (condition: cells not treated with DHT)
